Test results published in doi:10.1101/2022.01.11.475884 (bioRxiv, 2022).
Results are given in words; binding and its absence hold for the method and conditions named. In cells and extracts the contact can be indirect. Binding calls can cover weak binding; strength is not graded here. Sequences can lack the tags named with a protein.

Molecular target: T1, Flag-TAK1 (UniProt O43318)
T1 sequence: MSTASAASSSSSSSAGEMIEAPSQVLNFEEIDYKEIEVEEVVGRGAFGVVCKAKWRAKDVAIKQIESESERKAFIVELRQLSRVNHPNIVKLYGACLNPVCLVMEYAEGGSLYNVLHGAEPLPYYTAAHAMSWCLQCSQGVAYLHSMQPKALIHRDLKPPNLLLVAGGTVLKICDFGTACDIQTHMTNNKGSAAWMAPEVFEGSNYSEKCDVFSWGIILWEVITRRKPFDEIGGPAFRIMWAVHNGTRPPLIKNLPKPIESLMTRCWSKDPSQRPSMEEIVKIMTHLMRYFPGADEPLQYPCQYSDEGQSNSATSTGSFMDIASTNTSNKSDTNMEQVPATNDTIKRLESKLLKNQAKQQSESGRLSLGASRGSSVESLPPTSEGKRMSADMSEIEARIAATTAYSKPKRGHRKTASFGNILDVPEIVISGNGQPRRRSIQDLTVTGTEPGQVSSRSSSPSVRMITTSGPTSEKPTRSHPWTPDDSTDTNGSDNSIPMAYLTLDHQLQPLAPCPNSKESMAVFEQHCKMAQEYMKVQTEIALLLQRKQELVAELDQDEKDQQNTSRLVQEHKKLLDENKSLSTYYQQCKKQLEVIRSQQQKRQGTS
Assay: co-IP

Substance: Myc-Mfn2^ΔCT (domain or fragment)
- binding: binds
